Source: ChEMBL document CHEMBL3988442, “University of Dundee, Small-Polar-MMV Screening Library” (2021).

Mtb glucose medium: 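Growth of Mycobacterium tuberculosis over 3 days (7H9 medium with glucose and tyloxapol); the read-out is not stated. Tested at 50 µM. The record gives no direction; compounds that gave an IC50 in retests scored well above the rest, so higher reads as more growth inhibition. Of about 69,000 compounds tested this way, about 760 (1.1%) reached 50% or more in at least one test.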
Mtb cholesterol medium: 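Whole-cell growth test on Mycobacterium tuberculosis, read after 4 days in a medium based on cholesterol and the lipid DPPC; the read-out is not stated. Compounds at 50 µM. Direction is inferred from retests: higher values go with more growth inhibition. About 69,000 compounds were tested under these conditions; 0.54% (about 370) showed 50% or more at least once.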

The filed quantity is “Percent Effect” (%).
The controls that fix the scale are not given in the record; negative values are as filed.
The compounds are a random part of those screened.
Two or more numbers in one place are separate tests of the same structure; such repeats can differ widely.

| # | SMILES | Mtb glucose medium | Mtb cholesterol medium |
|---|---|---|---|
| 1 | `Cc1cc(CNC(=O)N2CCN(c3nc(C)c(C)s3)CC2)no1` | 13.43% | 1.176% and -27.86% |
| 2 | `O=C(COc1ccccc1F)NCC(O)(c1ccccc1)C1CC1` (configuration not stated) | 0.8323% | -6.002% |
| 3 | `O=C(O)C(F)(F)F.c1cnc(NC2COC3(CCN(Cc4cccs4)CC3)C2)nc1` (configuration not stated) | -29.24% | -5.637% |
| 4 | `CC(C)=CCN1CC2(CCN(C(=O)CCn3ccnc3C)CC2)CC1=O` | -2.688% | -2.616% and -11.81% |
| 5 | `O=C(CCCc1nc(C2CC2)no1)N1CCCC(c2ccn[nH]2)C1` (configuration not stated) | -10.03% | 24.1% |
| 6 | `[H][C@@]12CS(=O)(=O)C[C@]1([H])N(S(=O)(=O)c1cccc(OC)c1)CCN2C` | -3.514% and -9.367% | -1.798% |
| 7 | `COCc1ncc(-c2nccn2CCN(C)C)cn1` | -1.16% | -17.09% |
| 8 | `Cc1cc(C)c(CNC(=O)N2CCC(N3CCNC3=O)CC2)c(=O)[nH]1` | 10.02% | -2.741% and -8.026% |
| 9 | `Cc1ccc(N2CCCC3(CCN(C(=O)NC4CCCC4)C3)C2)nn1` (configuration not stated) | -39.91% | -12.43% |
| 10 | `O=C(CCNc1ccc(Br)cn1)NCc1ccncc1` | -20.97% | -6.563% |
| 11 | `CCC1c2ccccc2CCN1CCNS(C)(=O)=O` (configuration not stated) | 16.43% | 10.68% |
| 12 | `CC1CCCN1C1CCN(C(=O)c2cccc(F)c2)CC1` (configuration not stated) | -7.986% | -23.78% |
| 13 | `COC(=O)c1cccn1C1CCN(Cc2cccc(C(N)=O)c2)CC1` | -7.077% | -7.953% |
| 14 | `NC(=O)N1CCC2(CCN(Cc3ccccn3)C2=O)C1.O=C(O)C(F)(F)F` (configuration not stated) | -14.25% | -23.39% |
| 15 | `CNC(=O)CN1CCCC1c1ccccc1Br` (configuration not stated) | 26.17% | 4.587% |
| 16 | `COc1ccc(CCN2CC(c3nc(CSC)no3)CCC2=O)cc1` (configuration not stated) | -22.14% | 22.5% and 10.56% |
| 17 | `CCOc1cncc(N2CCN(c3ccccc3O)CC2)n1` | 25.42% | 20.16% |
| 18 | `CSCCCNC(=O)Nc1cccc(-c2nccn2C)c1` | -2.587% and -18.78% | -15.76% |
| 19 | `CC(C)C1COC2(CCN(Cc3ccco3)CC2)C1.O=C(O)C(F)(F)F` (configuration not stated) | -0.1251% | 11.55% |
| 20 | `O=C(CSc1nnc(N2CCCC2)s1)NC(=O)Nc1ccccc1` | 12.34% and -2.56% | -8.974% |
| 21 | `O=C(O)C(F)(F)F.O=C(O)C(F)(F)F.[H][C@@]12CN(Cc3csc(C)n3)C[C@]1([H])CN(C(=O)Cc1ccccn1)C2` | 17.93% | -1.625% |
| 22 | `Cc1cc(C)c2ncn(CCOCCO)c(=O)c2c1` | 13.52% | -1.328% |
| 23 | `CCN1CCN(CCNC(=O)c2ccn(-c3ccc(F)cc3)n2)CC1` | -13.99% | -16.64% |
| 24 | `CN(C)C(CNCc1nc(-c2ccsc2)no1)c1ccsc1` (configuration not stated) | -18.74% | 9.017% |
| 25 | `CCN(Cc1ncc(C(C)(C)C)o1)Cc1ccccc1C` | -42.7% and -1.338% | -27.07% |
| 26 | `COc1cn(-c2ccccc2)nc1C(=O)NCCN1CCCC(C)C1` (configuration not stated) | 15.59% | 5.927% |
| 27 | `CCOc1ccccc1OCCN(C)Cc1ncnn1CC` | -6.067% | -3.782% |
| 28 | `c1coc(CN2CCC3(CC2)COC(COCC2CCOCC2)C3)c1` (configuration not stated) | 3.534% | 19.95% |
| 29 | `Cc1cc(C(=O)N2CCOC[C@H](Oc3cnccn3)C2)c(C(F)(F)F)o1` | -17.63% and 2.621% | 35.33% |
| 30 | `Cc1nc(CC(=O)N2CCC[C@H]2c2nc(C(C)C)no2)cs1` | 27.36% and -3.6% | -13.03% |
| 31 | `COCC(=O)N[C@H](C)c1onc(-c2ccc(OC)cc2)c1C(=O)O` | -9.815% and -68.75% | -22.28% |
| 32 | `CCC(C)C(=O)NCCCn1nc(C)cc1C` (configuration not stated) | 1.896% | -13.38% |
| 33 | `O=C(N1CCOCC1)N1CCc2ncnc(NC3CC3)c2CC1` | -36.45% | -0.3188% and -46.1% |
| 34 | `CO[C@H]1C[C@@H](O)C12CCN(CCCOc1ccc(C(N)=O)cc1)CC2` | 11.96% | 2.521% |
| 35 | `O=C(Cn1cc(Cl)cn1)Nc1ccc2c(c1)OCO2` | -9.521% | -8.728% |
| 36 | `O=C(CC1CC1)NCc1cc(=O)n2c(n1)CN(Cc1ccoc1)CCC2` | 21.69% | 7.012% |
| 37 | `CC(C)Cc1nc(OCC(=O)O)c(C#N)c2c1CCC2` | 16.64% | -2.588% |
| 38 | `O=C(CCn1nc(-c2cccs2)oc1=O)Nc1cccc(F)c1` | 3.75% | -18.35% |
| 39 | `Cc1ccnc(NC(=O)c2ccc(-n3ncc(C#N)c3N)cc2)c1` | -34.57% | -1.02% |
| 40 | `CC(C)(C)NS(=O)(=O)c1cc(NC(=O)C2CC2)ccc1F` | -23.26% | -3.236% |
| 41 | `Cc1c(C(=O)O)cnn1-c1ccc(-c2nc(C(C)(C)C)no2)cn1` | 11.47% and 6.652% | 6.909% |
| 42 | `[H][C@@]12C[C@@H](OC)C[C@]1([H])CN(C(=O)c1ccc(C)s1)C2` | 19.01% | 38.84% and 69.12% |
| 43 | `CCN(CC)CCn1ccnc1-c1[nH]cnc1C` | 14.47% | 13.69% |
| 44 | `CC(NC(=O)NCc1cc[nH]n1)c1ccc2c(c1)CCC(=O)N2` (configuration not stated) | -10.26% | -19.47% |
| 45 | `CN(CC1(C)COC1)C(=O)c1cc(-c2ccn(C)n2)nc2ccccc12` | -12.62% | 6.245% and 17.8% |
| 46 | `[H][C@@]12CCCCCN(C(=O)C3CC3)[C@@]1([H])[C@H](c1cccc(F)c1)CN2C` | -2.476% | -20.46% and 2.381% |
| 47 | `Cc1n[nH]cc1CNCC(c1cccc(F)c1)N(C)C` (configuration not stated) | 11.54% and 3.754% | 5.702% |
| 48 | `Cc1ccc(NC(=O)CNc2ccn(CC(N)=O)n2)c(Cl)c1` | -12.04% | -28.79% |
| 49 | `C[S+]([O-])c1ccc(CNc2ccc(F)cc2OC(F)F)cc1` (configuration not stated) | -12.27% and -2% | -5.76% |
| 50 | `CCOC(=O)c1n[nH]cc1-c1cncn1CCn1nc(C)c(Cl)c1C` | -2.064% | -1.485% |